These results are taken from doi:10.1101/2021.08.04.455049.

Results are given in words; binding and its absence hold for the method and conditions named. Some results given as binding are weak or reduced against the parent protein; the word gives no strength.

This assay addresses Respiratory syncytial virus matrix protein (M) (Human respiratory syncytial virus (strain A2)) (UniProt P0DOE7). The assay is described as follows: cryo-EM structure.

B1: Respiratory syncytial virus matrix protein (M) (protein, UniProt P0DOE7 1-256)
chain: METYVNKLHEGSTYTAAVQYNVLEKDDDPASLTIWVPMFQSSMPADLLIKELANVNILVKQISTPKGPSLRVMINSRSAVLAQMPSKFTICANVSLDERSKLAYDVTTPCEIKACSLTCLKSKNMLTTVKDLTMKTLNPTHDIIALCEFENIVTSKKVIIPTYLRSISVRNKDLNTLENITTTEFKNAITNAKIIPYSGLLLVITVTDNKGAFKYIKPQSQFIVDLGAYLEKESIYYVTTNWKHTATRFAIKPMED
Take B1: the binding entry is reported as “binds”.
